The results in this text go back to patent US9803244.

No constants are given. Whether binding was seen depends on the method and setting. In cells and extracts the contact can be indirect. Some results given as binding are weak or reduced against the parent protein; the word gives no strength. Where a sequence is shown, tags or fusion partners need not be part of it.

Test [1] addresses T1, HA-tagged CDH26 (cadherin-like 26), expressed from pCDH26-HA (UniProt Q8IXH8).
T1 sequence (N-glycosylated in HEK 293T cells (PNGase F shift; sites not given), looked up): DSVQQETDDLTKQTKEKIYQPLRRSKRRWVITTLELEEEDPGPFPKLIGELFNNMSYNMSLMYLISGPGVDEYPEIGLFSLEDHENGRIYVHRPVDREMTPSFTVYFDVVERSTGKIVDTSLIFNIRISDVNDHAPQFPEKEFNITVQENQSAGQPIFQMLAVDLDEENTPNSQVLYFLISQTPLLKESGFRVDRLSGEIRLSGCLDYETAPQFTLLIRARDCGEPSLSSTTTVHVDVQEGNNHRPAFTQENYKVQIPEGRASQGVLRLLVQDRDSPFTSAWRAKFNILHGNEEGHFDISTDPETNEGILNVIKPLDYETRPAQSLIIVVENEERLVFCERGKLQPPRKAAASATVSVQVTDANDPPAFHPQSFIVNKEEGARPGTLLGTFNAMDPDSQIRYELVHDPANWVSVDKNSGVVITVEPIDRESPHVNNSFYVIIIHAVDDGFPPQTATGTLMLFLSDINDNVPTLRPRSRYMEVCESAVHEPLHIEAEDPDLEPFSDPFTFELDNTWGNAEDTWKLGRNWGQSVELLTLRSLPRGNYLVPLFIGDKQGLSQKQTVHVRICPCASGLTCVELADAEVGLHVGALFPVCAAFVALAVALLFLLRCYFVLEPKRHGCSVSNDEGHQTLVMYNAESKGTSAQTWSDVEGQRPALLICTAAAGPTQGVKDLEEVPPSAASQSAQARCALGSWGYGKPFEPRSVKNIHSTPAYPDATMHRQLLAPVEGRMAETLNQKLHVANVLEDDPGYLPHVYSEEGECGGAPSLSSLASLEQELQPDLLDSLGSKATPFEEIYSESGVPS
The test is described as follows: co-immunoprecipitation (anti-HA IP, anti-myc western blot) from lysates of co-transfected HEK 293T cells. On the technique in general: In western blotting, separated proteins are transferred to a membrane and probed.

Test [2] concerns the target T2, Myc-tagged CDH26 (cadherin-like 26), expressed from pCDH26-MYC (UniProt Q8IXH8).
T2 sequence (N-glycosylated in HEK 293T cells (sites not given; shown for HA-tagged CDH26), looked up): T1 sequence (N-glycosylated in HEK 293T cells (PNGase F shift; sites not given), looked up)
The test can be described thus: reciprocal co-immunoprecipitation (anti-myc IP, anti-HA western blot) from lysates of co-transfected HEK 293T cells.

B1: Myc-tagged CDH26 (cadherin-like 26), expressed from pCDH26-MYC (protein, UniProt Q8IXH8 28-832, looked up, not shown: small tags and cut ends)
chain: T1 sequence (N-glycosylated in HEK 293T cells (PNGase F shift; sites not given), looked up)
modifications: N-glycosylated in HEK 293T cells (sites not given; shown for HA-tagged CDH26)
For the molecule B1, in test [1], the binding result is recorded as “binds”.

B2: HA-tagged CDH26 (cadherin-like 26), expressed from pCDH26-HA (protein, UniProt Q8IXH8 28-832, looked up, not shown: small tags and cut ends)
chain: T1 sequence (N-glycosylated in HEK 293T cells (PNGase F shift; sites not given), looked up)
modifications: N-glycosylated in HEK 293T cells (PNGase F shift; sites not given)
As to B2, the binding result in test [2] is listed as “binds”.
